Measurements taken from PubChem BioAssay AID651664 (NMMLSC, 2012).
Out of some 1,800 compounds screened, fewer than 10 were called active.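 The calls were made as follows: active = inhibition of granule release above a set limit; inactive = the rest.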 The list shows a part of the results.

assay: inhibitors of lytic granule exocytosis, flow cytometry, TALL-104 cells, validation set (AID 651664); settings: TALL-104 LAMP-1 externalization, at 15.2 µM, hits give high values, stimulated with thapsigargin and PMA

inhibition, inactive:
CC(C)Sc1cc(N2CCOCC2)nc(-c2ccc(Cl)cc2)n1 -2.1%
Cn1c(=O)c2c3c(sc2n2cnnc12)CCC3 -0.8%
CCN(CC(=O)NCc1ccc(F)cc1)Cc1nc2cc(Cl)ccc2c(=O)[nH]1 -1.4%
COc1ccc(C(=O)c2ccccc2)c2c(O)ccc(C(=O)c3ccccc3)c12 1.8%
Cc1cc(C)nc(NC(=O)c2c(-c3c(Cl)cccc3Cl)noc2C)n1 0.9%
CCCC(=O)NNc1cc(=O)c2c(=O)n(C)c(=O)n(C)c2[nH]1 1.5%
Cc1ccc2nc(-c3ccc4c(c3)OCCO4)cc(C(=O)O)c2c1 -1.6%
COc1ccc(C2/C(=C(/O)c3ccc(C)cc3)C(=O)C(=O)N2C)cc1 (configuration not stated) -0.2%
Cc1ccccc1-c1nnc(SCC(=O)NC2CCCCC2)o1 -1.6%
Cc1ccccc1NC1C=CS(=O)(=O)C1 (configuration not stated) 30.2%
Cc1cccnc1Nc1nc(-c2ccccn2)cs1 2.4%
CC1(C)OC(=O)N(Cc2ccco2)C1(C)O (configuration not stated) -1.3%
Cc1ccc(COn2c(-c3ccc(Cl)cc3Cl)nc3ncccc32)cc1 -0.8%
Cc1n[nH]c(C)c1CCCOc1ccccc1 -1.6%
S=c1[nH]nc(COc2ccc3ccccc3c2)o1 25.8%
CC(=O)c1cccc(NC(=O)C2CCCN(S(=O)(=O)c3ccc(F)cc3)C2)c1 (configuration not stated) -6.3%
CCc1nc(C)cn1S(=O)(=O)c1cc(OC)c(C)cc1C 0.9%
COc1ccc(NC(=O)c2cccnc2N2CCCCC2)cc1 -1%
CC(C(=O)O)N1C(=O)CSc2ncccc21 (configuration not stated) 2.4%
CN(C(=O)COC(=O)c1ccccc1Nc1ccccc1)C1CCS(=O)(=O)C1 (configuration not stated) 14%
Cc1ccc(CNC(=O)c2ccccc2NC(=O)CSc2nnnn2C)cc1 -1.7%
O=C(Nc1ccc2ccccc2c1)c1onc2c1CCCC2 -0.5%
CC(C)(C)C(=O)/C(=C\c1cccc([N+](=O)[O-])c1)n1cncn1 0%
CC(C)C(=O)NC(c1ccco1)c1ccc2cccnc2c1O (configuration not stated) -2.7%
Oc1ccc(-c2onc3ccc(Cl)cc23)cc1 2.3%
Cc1[nH]nc2c1C(c1ccc(OC(=O)c3ccco3)cc1)C(C#N)=C(N)O2 (configuration not stated) -5.1%
COc1ccc(/C(O)=C2/C(=O)C(=O)N(CCCN(C)C)C2c2ccc(Cl)cc2)cc1OC (configuration not stated) 6.2%
CCOC(=O)C(CCCOc1ccccc1)C(=O)OCC 2.8%
O=c1/c(=C/c2ccc(O)cc2)sc2n1CCCN=2 1.7%
CCOC(=O)COn1c2c(c3c4no[n+]([O-])c4ccc31)CCCC2 0.5%
Cc1cc2c(c(N)n1)c(=O)oc1ccccc12 -1%
COc1ccc(C(=O)N2CCSC2=S)cc1OC 4.8%
Cc1cccc(C)c1NC1=NC(=S)N(c2ccccc2)C12CCOC(C)(C)C2 (configuration not stated) 0.3%
CCOC(=O)c1c(C)[nH]c(C(=O)OCC(=O)NC2CCS(=O)(=O)C2)c1C (configuration not stated) 3.9%
COc1cccc(C2C(C(=O)Nc3nc4ccccc4s3)=C(C)NC3=C2C(=O)CC(C)(C)C3)c1OC (configuration not stated) 9%
CNC(=S)N1N=C(c2ccc(OC)cc2)CC1c1ccc(N(C)C)cc1 (configuration not stated) 2.4%
Cc1[nH]c2ccccc2c1C(=O)CN1CCCCC1C (configuration not stated) -1.1%
O=c1oc2ccccc2cc1-c1nc(-c2ccccc2)no1 1.7%
N#CC(c1ccccc1)c1ccc(C(=O)c2ccc(F)cc2)cc1 (configuration not stated) 14.5%
CCSc1nc(N2CCCCC2)c2c(c1C#N)CCCC2 0.8%
O=C(Nc1ccc2[nH]c3c(c2c1)CCCC3)c1ccco1 9%
CCOc1cccc(OCCCCN2CCOCC2)c1 2.4%
COc1ccc(OC)c(-n2c(-c3cc(-c4ccc(F)cc4)n[nH]3)n[nH]c2=S)c1 -1.7%
O=C(CCCOc1ccccc1)N1CCN(c2ccccn2)CC1 -2.5%
COc1ccccc1N1C(=O)C2CC=CC(C)C2C1=O (configuration not stated) 2.4%
CN(C)c1nc(SCc2ccccc2Cl)nc2c1CCCC2 -0.7%
CCOC(=O)c1c(NC(=O)Cc2cccs2)sc(C(=O)N2CCCCC2)c1C -4.7%
Cc1cc(N2CCCC2)nc(SCC(=O)c2ccccc2)n1 -1%
Cc1ccc(C)c(N2CCN(c3nnnn3-c3ccccc3)CC2)c1 -2.1%
Cc1cc(NC(=O)CN2C(=O)NC(Cc3ccccc3)C2=O)no1 (configuration not stated) 1.6%
COc1ccc(NC(=O)NCc2cccn2C)c(OC)c1 -1.6%
Cn1c(Cl)c(C(=O)Nc2ccc(Cl)cc2)c2ccccc21 0.5%
CCOC(=O)Cn1c(N2CCCCCC2)nc2c1c(=O)[nH]c(=O)n2C -4.4%
S=C(Nc1cccc(Cl)c1)Nc1ccccc1Oc1ccccc1 -0.2%
Cc1ccc(C(O)CN2C3=NCCN3c3ccccc32)cc1 (configuration not stated) -1.9%
COc1ccc(C(=O)O/N=C(\N)Cc2ccc(Cl)cc2)cc1OC -2%
Cc1[nH]c2ccccc2c1/C=C/c1cc[n+](C)cc1 3.8%
O=S(=O)(c1ccccc1)c1nc(-c2ccccc2)oc1NCc1cccnc1 3.9%
CCOc1cc(C(=O)Nc2cc(=O)n(C)c(=O)n2C)cc(OCC)c1OCC 6.6%
CCc1nc2c(c(SC)nn2-c2ccccc2)c(N)c1C(=O)OC -0.6%
O=C1C2C(C(=O)N1/N=C/c1cc(Br)cc([N+](=O)[O-])c1O)C1C=CC2C12CC2 (configuration not stated) 0%
Cc1cccc(-c2noc(-c3cc4ccccc4oc3=O)n2)c1 -1.4%
CC1=NN(C(N)=S)C(=O)C1N=Nc1ccccc1C (configuration not stated) 1.6%
CCN1CCCC1CNc1ncnc2c1[nH]c1ccc(F)cc12 (configuration not stated) 0.8%
O=C1CCC(=O)N1c1nc2nc(-c3ccccc3)cc(=O)n2[nH]1 -1.6%
CCOC(=O)C1CCCN(CC(=O)Nc2c(C(=O)OC)[nH]c3ccc(Br)cc23)C1 (configuration not stated) 3.8%
COc1cc(/C=N/NC(=O)c2ccncc2)ccc1OC(=O)c1ccc([N+](=O)[O-])cc1 -2.9%
Clc1cc(Br)ccc1OCCOCCN1CCOCC1 -2.7%
N/C(=N\OC(=O)CCCN1C(=O)c2ccccc2C1=O)c1ccc(Br)cc1 -3.6%
C=CCn1c(=O)/c(=C\c2ccsc2)s/c1=C(/C#N)C(=O)NCCN1CCOCC1 -2.9%
CCOc1nnc(C)c2c(C)n(-c3ccc(Cl)cc3)nc12 0.2%
N#CCCN1CCN(Cn2c3ccccc3c3ccccc32)CC1 0.8%
O=C1C=C(Nc2ccc(Cl)cc2)CC(c2ccco2)C1 (configuration not stated) -2.8%
NC(=O)C(c1ccc(Cl)cc1)c1ccc(Sc2ccccc2)nn1 (configuration not stated) -1.6%
CCN(CC)S(=O)(=O)c1cccc2cc(C(=O)O)c(O)cc12 0.3%
Cc1ccc(S(=O)(=O)c2c(COC(=O)c3cccc(Cl)c3)c(-c3ccccc3)nn2C)cc1 0.3%
CN(C)C(=O)c1ccc(-n2nc(C(F)(F)F)c3c2CCCC3)cc1 1%
CCNc1nc(NCC)nc(N2CC(=O)N(CC(=O)OCC)C2=N)n1 -2.9%
CCOC(=O)N1CCC(NC(=O)c2ccc3nc(N4CCOCC4)sc3c2)CC1 1%
CCOc1cc(CNc2ccc(N(C)C)cc2)cc(Br)c1OCC(=O)NC(C)(C)C 0.2%
Cc1ccc(C(C)C)c(OCC(O)CN2CCN(CCO)CC2)c1 (configuration not stated) -2.1%
CC1(C)Cc2c(c(N3CCOCC3)nc3sc4c(NCc5ccco5)nnnc4c23)CS1 0.9%
CCCc1cc2c(cc1NC(=O)c1ccccc1Cl)OCO2 -1.3%
COc1ccc(NC(=O)CN2C(=O)c3cccc4cccc2c34)c(OC)c1 -1.7%
COC(=O)[C@@H](NC(=O)N1CCN(c2cccc(C(F)(F)F)c2)CC1)C(C)C -1.3%
CC(OC(=O)Cn1c(C(F)(F)F)nc2ccccc21)C(=O)N1CCCc2ccccc21 (configuration not stated) 3.5%
CCCCCNc1nc2ccccc2nc1NS(=O)(=O)c1cccs1 0.3%
Cc1cc(NC(=O)c2cc3n(n2)C(C(F)(F)F)CC(c2ccco2)N3)n(-c2ccccc2)n1 (configuration not stated) 3.7%
COCCn1c(SCC(=O)Nc2cccc(S(N)(=O)=O)c2)nc2ccccc21 -1.1%
COc1cc2c(cc1NC(=O)C(C)OC(=O)C1CC(=O)N(Cc3ccco3)C1)oc1ccccc12 (configuration not stated) 1.8%
CCOC(=O)Nc1nc(C)c(C(=O)c2ccc(Cl)cc2)s1 -2.2%
CCCc1nnc(NC(=O)CC(=O)Nc2ccccc2C(=O)O)s1 1.2%
Cc1ccc(NC(=O)Nc2cccs2)cc1 -2.6%
CC(C)(C)N(NC(=O)Nc1ccc(Cl)c(Cl)c1)C(=O)c1ccccc1 -5.3%
O=C(O)c1cccc(Cn2c(Cl)c(/C=N/NC(=O)c3ccccc3Cl)sc2=O)c1 4%
CC(=O)Nc1ccc(C(=O)CSc2ncn(-c3ccccc3)n2)cc1 -3.6%
Cc1ccc(-c2nn3c(C)nnc3c3ccccc23)cc1S(=O)(=O)NC(C)c1ccccc1 (configuration not stated) 8.1%

4 records picked at random from those above:
inhibition, inactive:
CCOc1cccc(OCCCCN2CCOCC2)c1 2.4%
CC(OC(=O)Cn1c(C(F)(F)F)nc2ccccc21)C(=O)N1CCCc2ccccc21 (configuration not stated) 3.5%
O=C1C2C(C(=O)N1/N=C/c1cc(Br)cc([N+](=O)[O-])c1O)C1C=CC2C12CC2 (configuration not stated) 0%
O=C(CCCOc1ccccc1)N1CCN(c2ccccn2)CC1 -2.5%
